Among the data in paper PMC7182433 are binding values, retold here.

The chains behind the UniProt entries cited, without tags or fusion partners.
UniProt O00506: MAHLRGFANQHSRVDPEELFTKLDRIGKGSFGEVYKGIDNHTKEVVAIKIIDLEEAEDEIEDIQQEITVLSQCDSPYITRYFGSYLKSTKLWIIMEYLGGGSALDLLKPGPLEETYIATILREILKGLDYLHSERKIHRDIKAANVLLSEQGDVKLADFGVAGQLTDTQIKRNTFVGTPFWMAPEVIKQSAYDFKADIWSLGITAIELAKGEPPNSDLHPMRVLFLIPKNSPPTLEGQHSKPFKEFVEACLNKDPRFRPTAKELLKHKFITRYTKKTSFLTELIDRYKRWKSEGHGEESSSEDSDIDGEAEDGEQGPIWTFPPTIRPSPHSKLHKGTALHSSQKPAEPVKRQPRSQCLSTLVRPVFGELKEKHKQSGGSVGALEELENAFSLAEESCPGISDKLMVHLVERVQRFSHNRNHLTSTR

These are yes or no findings as the source states them, for the method shown. In cells and extracts the contact can be indirect. Some entries that bind do so weakly or less than the wild type. Sequences can lack the tags named with a protein.

The assay has as its target T1, FLAG-MST2 wild type (human) (UniProt Q13188).
T1 sequence: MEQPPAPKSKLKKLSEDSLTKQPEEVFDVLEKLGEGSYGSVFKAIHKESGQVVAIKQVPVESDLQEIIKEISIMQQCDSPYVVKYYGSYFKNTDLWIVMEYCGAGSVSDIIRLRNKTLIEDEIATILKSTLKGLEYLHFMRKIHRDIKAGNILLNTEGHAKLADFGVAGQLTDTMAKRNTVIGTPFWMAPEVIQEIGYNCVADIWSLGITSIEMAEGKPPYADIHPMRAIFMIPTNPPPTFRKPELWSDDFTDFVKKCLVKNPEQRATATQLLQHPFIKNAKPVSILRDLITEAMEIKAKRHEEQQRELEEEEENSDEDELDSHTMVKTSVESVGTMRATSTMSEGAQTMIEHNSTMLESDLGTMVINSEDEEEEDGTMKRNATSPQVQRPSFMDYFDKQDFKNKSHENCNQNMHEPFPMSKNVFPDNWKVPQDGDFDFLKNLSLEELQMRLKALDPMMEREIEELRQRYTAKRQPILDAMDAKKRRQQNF
Kind of assay: co-IP; anti-FLAG M2 resin IP from cleared lysates of transfected 293FT cells (20 mM Tris-HCl pH 7.5, 150 mM NaCl, 0.2% Triton X-100; 2 hr at 4°C), immunoblot; siSIKE1 or siCCM3 in Figure 2D; STK25 WT or D158N overexpressed in Figure 2-figure supplement 1. A general note: Immunoblotting shows a protein as a band on a membrane.

For the molecule “STK25 (Serine/Threonine kinase 25), endogenous (from UniProt O00506 1-426) (enzyme)”, the binding entry is given as “binds”.

B1: SLMAP (sarcolemmal membrane-associated protein), endogenous (protein, UniProt Q14BN4 1-828)
chain: MPSALAIFTCRPNSHPFQERHVYLDEPIKIGRSVARCRPAQNNATFDCKVLSRNHALVWFDHKTGKFYLQDTKSSNGTFINSQRLSRGSEESPPCEILSGDIIQFGVDVTENTRKVTHGCIVSTIKLFLPDGMEARLRSDVIHAPLPSPVDKVAANTPSMYSQELFQLSQYLQEALHREQMLEQKLATLQRLLAITQEASDTSWQALIDEDRLLSRLEVMGNQLQACSKNQTEDSLRKELIALQEDKHNYETTAKESLRRVLQEKIEVVRKLSEVERSLSNTEDECTHLKEMNERTQEELRELANKYNGAVNEIKDLSDKLKVAEGKQEEIQQKGQAEKKELQHKIDEMEEKEQELQAKIEALQADNDFTNERLTALQVRLEHLQEKTLKECSSLEHLLSKSGGDCTFIHQFIECQKKLIVEGHLTKAVEETKLSKENQTRAKESDFSDTLSPSKEKSSDDTTDAQMDEQDLNEPLAKVSLLKDDLQGAQSEIEAKQEIQHLRKELIEAQELARTSKQKCFELQALLEEERKAYRNQVEESTKQIQVLQAQLQRLHIDTENLREEKDSEITSTRDELLSARDEILLLHQAAAKVASERDTDIASLQEELKKVRAELERWRKAASEYEKEITSLQNSFQLRCQQCEDQQREEATRLQGELEKLRKEWNALETECHSLKRENVLLSSELQRQEKELHNSQKQSLELTSDLSILQMSRKELENQVGSLKEQHLRDSADLKTLLSKAENQAKDVQKEYEKTQTVLSELKLKFEMTEQEKQSITDELKQCKNNLKLLREKGNNKPWPWMPMLAALVAVTAIVLYVPGLARASP
With B1, the binding result is recorded as “binds”.
